Source: PMC3424240

Target: T1, FLAG-Setd1b (aa 225–1671) (human) (UniProt Q9UPS6)
T1 sequence: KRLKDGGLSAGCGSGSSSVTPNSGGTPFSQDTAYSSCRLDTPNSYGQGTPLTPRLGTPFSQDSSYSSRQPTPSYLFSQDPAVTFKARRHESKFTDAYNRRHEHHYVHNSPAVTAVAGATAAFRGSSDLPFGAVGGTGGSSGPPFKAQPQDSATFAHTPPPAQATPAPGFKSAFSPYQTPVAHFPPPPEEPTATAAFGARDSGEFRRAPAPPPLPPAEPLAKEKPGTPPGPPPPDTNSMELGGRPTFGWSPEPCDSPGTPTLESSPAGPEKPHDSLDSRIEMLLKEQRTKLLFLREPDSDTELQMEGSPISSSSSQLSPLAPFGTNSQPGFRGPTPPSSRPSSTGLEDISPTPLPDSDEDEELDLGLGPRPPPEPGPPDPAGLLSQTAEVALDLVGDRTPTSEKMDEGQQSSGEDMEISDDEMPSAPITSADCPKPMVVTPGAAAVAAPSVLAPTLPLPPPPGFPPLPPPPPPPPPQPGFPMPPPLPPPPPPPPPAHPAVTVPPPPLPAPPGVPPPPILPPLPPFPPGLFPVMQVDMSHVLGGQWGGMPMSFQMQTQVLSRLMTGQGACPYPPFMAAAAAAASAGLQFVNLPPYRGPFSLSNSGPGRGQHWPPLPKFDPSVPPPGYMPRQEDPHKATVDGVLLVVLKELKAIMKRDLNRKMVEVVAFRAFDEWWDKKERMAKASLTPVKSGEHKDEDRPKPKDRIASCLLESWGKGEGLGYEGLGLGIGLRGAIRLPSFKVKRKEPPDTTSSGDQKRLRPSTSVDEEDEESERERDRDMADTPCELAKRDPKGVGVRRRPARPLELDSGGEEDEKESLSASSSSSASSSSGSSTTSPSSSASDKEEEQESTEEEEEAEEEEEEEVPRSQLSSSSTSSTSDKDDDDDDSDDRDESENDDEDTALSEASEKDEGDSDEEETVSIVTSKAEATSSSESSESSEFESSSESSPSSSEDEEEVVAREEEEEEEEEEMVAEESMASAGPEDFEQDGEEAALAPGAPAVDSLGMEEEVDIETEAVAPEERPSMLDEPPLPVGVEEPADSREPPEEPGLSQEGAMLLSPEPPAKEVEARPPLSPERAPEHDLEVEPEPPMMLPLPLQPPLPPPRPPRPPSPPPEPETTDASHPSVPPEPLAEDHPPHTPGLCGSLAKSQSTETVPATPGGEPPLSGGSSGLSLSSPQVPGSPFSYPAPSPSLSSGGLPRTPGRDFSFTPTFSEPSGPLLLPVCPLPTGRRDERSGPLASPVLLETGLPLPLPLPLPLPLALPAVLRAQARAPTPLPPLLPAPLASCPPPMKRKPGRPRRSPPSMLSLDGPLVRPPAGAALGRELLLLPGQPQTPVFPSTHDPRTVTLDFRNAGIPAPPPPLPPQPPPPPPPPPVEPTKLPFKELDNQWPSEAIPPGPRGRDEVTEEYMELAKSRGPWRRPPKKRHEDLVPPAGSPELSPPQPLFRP
Test: affinity purification with mass spectrometry; FLAG immunoprecipitation (anti-FLAG M2 agarose, 3 h) from nuclear extracts of doxycycline-induced T-REx HEK293 lines, elution with FLAG peptide, SDS-PAGE, Coomassie bands identified by LTQ ion trap mass spectrometry

B1: endogenous Rbm15 (protein, UniProt Q96T37 1-977)
chain: MRTAGRDPVPRRSPRWRRAVPLCETSAGRRVTQLRGDDLRRPATMKGKERSPVKAKRSRGGEDSTSRGERSKKLGGSGGSNGSSSGKTDSGGGSRRSLHLDKSSSRGGSREYDTGGGSSSSRLHSYSSPSTKNSSGGGESRSSSRGGGGESRSSGAASSAPGGGDGAEYKTLKISELGSQLSDEAVEDGLFHEFKRFGDVSVKISHLSGSGSGDERVAFVNFRRPEDARAAKHARGRLVLYDRPLKIEAVYVSRRRSRSPLDKDTYPPSASVVGASVGGHRHPPGGGGGQRSLSPGGAALGYRDYRLQQLALGRLPPPPPPPLPRDLERERDYPFYERVRPAYSLEPRVGAGAGAAPFREVDEISPEDDQRANRTLFLGNLDITVTESDLRRAFDRFGVITEVDIKRPSRGQTSTYGFLKFENLDMSHRAKLAMSGKIIIRNPIKIGYGKATPTTRLWVGGLGPWVPLAALAREFDRFGTIRTIDYRKGDSWAYIQYESLDAAHAAWTHMRGFPLGGPDRRLRVDFADTEHRYQQQYLQPLPLTHYELVTDAFGHRAPDPLRGARDRTPPLLYRDRDRDLYPDSDWVPPPPPVRERSTRTAATSVPAYEPLDSLDRRRDGWSLDRDRGDRDLPSSRDQPRKRRLPEESGGRHLDRSPESDRPRKRHCAPSPDRSPELSSSRDRYNSDNDRSSRLLLERPSPIRDRRGSLEKSQGDKRDRKNSASAERDRKHRTTAPTEGKSPLKKEDRSDGSAPSTSTASSKLKSPSQKQDGGTAPVASASPKLCLAWQGMLLLKNSNFPSNMHLLQGDLQVASSLLVEGSTGGKVAQLKITQRLRLDQPKLDEVTRRIKVAGPNGYAILLAVPGSSDSRSSSSSAASDTATSTQRPLRNLVSYLKQKQAAGVISLPVGGNKDKENTGVLHAFPPCEFSQQFLDSPAKALAKSEEDYLVMIIVRGFGFQIGVRYENKKRENLALTLL
- binding: binds

No constants are given. Whether binding was seen depends on the method and setting. In cells and extracts the contact can be indirect. A yes stands for co-enrichment or nearness to the bait. Other partners may have been found. Where a sequence is shown, tags or fusion partners need not be part of it.
